Consider five molecules from patent US20030022837A1 (Stanford University, published 2003).

Sequences of proteins named here, by UniProt entry; tags and fusion partners are left off.
UniProt Q12834: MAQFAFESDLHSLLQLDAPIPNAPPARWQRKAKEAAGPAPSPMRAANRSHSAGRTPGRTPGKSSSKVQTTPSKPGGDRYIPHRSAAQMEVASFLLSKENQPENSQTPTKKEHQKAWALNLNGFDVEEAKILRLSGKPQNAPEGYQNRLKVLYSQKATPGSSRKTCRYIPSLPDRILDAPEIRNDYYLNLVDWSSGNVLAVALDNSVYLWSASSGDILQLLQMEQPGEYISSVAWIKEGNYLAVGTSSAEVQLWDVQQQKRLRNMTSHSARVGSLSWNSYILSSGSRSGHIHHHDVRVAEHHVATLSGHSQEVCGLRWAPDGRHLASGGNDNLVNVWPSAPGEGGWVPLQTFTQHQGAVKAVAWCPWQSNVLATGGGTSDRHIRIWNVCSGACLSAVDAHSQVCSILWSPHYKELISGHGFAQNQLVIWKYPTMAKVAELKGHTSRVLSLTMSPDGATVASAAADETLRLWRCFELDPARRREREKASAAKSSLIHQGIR
UniProt P13350: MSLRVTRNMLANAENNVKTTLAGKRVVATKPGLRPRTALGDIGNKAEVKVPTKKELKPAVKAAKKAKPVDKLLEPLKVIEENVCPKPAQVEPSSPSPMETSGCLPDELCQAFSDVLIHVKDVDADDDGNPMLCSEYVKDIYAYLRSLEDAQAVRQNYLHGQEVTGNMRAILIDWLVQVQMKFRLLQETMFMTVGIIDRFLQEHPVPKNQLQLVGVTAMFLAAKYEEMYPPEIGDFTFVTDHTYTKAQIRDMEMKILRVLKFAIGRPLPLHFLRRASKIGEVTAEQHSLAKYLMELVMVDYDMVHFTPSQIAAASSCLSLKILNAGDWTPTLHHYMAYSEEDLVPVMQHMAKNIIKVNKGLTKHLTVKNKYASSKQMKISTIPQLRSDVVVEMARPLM

Assay [1] has as its target His-Cdc20 (baculovirus-expressed human Cdc20) (human) (UniProt Q12834). The assay can be described thus: purified MBP-Emi1 variants and baculovirus-expressed Cdc20, amylose bead pull-down.
Assay [2] deals with T1, Xenopus cyclin B2 (Xenopus) (UniProt P13351).
T1 sequence (looked up): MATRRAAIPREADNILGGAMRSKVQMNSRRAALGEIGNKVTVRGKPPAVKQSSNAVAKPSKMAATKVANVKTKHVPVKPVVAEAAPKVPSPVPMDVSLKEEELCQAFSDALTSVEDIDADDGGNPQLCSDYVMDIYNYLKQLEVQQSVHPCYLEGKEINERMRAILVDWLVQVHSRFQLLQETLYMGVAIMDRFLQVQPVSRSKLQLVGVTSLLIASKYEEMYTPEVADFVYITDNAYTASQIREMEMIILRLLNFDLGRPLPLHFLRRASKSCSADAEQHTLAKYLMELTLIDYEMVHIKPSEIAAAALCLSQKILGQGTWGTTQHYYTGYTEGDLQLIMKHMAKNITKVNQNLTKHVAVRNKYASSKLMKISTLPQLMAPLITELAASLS
The assay can be described thus: yeast two-hybrid screen.

Assay [3] deals with Xenopus cyclin B1 (Xenopus) (UniProt P13350). The assay can be described thus: yeast two-hybrid screen.
The target in assay [4] is human Cdc20 (IVT hCdc20; endogenous Cdc20 of HeLa lysate) (human) (UniProt Q12834). Description: co-immunoprecipitation from HeLa lysate with anti-hEmi1 antibody.
In assay [5] the target is His-Cdc20 (baculovirus-expressed human Cdc20) (human) (UniProt Q12834). Description: purified MBP-Emi1-CT and His-Cdc20, amylose bead pull-down.
Assay [6] shares this target. Description: purified MBP-Emi1 and His-Cdc20 (100 nM each), amylose bead pull-down.

Results are given in words; binding and its absence hold for the method and conditions named. For part of these data: Binding seen in cells or lysates may run through a third protein. Some entries that bind do so weakly or less than the wild type. For part of these data: Where a sequence is shown, tags or fusion partners need not be part of it.

B1: MBP-Emi1-NT (protein, not shown: large carriers)
chain: MMCGFASNQSPKKLSSKKSSATNVHLEISPVKHHPPCKVYENVQGSCLDSAICTTVAKCADLTDDLPVHNKENLLHRLNDLETNSYEEYSALQDSGYSSILQNDSPCQDETDRKVSDIQVRETPKNFMSYQRPFHTLSKINLPILRFEEAVCSTLKKMRKTNKKIDWNAVDVVCGGNYGLEHLIGKSMGLERF
As for B1, the binding entry in assay [1] is given as “binds”.

B2: Emi1-NT (Xenopus Emi1 N-terminus, amino acids 1-193), two-hybrid bait (protein)
chain: B1 chain
As for B2, the binding entry in assay [2] and in assay [3] was “binds” each time.

B3: human Emi1 (hEmi1), full length (protein)
chain: MSRRPCSCALRPPRCSCSASPSAVTAAGRPRPSDSCKEESSTLSVKMKCDFNCNHVHSGLKLVKPDDIGRLVSYTPAYLEGSCKDCIKDYERLSCIGSPIVSPRIVQLETESKRLHNKENQHVQQTLNSTNEIEALETSRLYEDSGYSSFSLQSGLSEHEEGSLLEENFGDSLQSCLLQIQSPDQYPNKNLLPVLHFEKVVCSTLKKNAKRNPKVDREMLKEIIARGNFRLQNIIGRKMGLECVDILSELFRRGLRHVLATILAQLSDMDLINVSKVSTTWKKILEDDKGAFQLYSKAIQRVTENNNKFSPHASTREYVMFRTPLASVQKSAAQTSLKKDAQTKLSNQGDQKGSTYSRHNEFSEVAKTLKKNESLKACIRCNSPAKYDCYLQRATCKREGCGFDYCTKCLCNYHTTKDCSDGKLLKASCKIGPLPGTKKSKKNLRRL
Take B3: the binding result in assay [4] is recorded as “binds”.

B4: MBP-Emi1-CT (protein, not shown: large carriers)
chain: CKELCEKRAKVSSHTATRDESLCRVPLASVQKVAASSLCTSKKQSKNKNGGLSCNRLAEFIEVAQTLKNDQSLKVCVDCGSPAKHDPCLHRAICTRESCKLDFCTRCSCKYHFSKSCLMSKPGSYRIPSEPLPGSKKSKQNLRRL
Consider B4, for which the binding result in assay [5] is given as “binds”.

B5: Xenopus Emi1 (Early Mitotic Inhibitor 1), full-length wild type (other)
chain: MMCGFASNQSPKKLSSKKSSATNVHLEISPVKHHPPCKVYENVQGSCLDSAICTTVAKCADLTDDLPVHNKENLLHRLNDLETNSYEEYSALQDSGYSSILQNDSPCQDETDRKVSDIQVRETPKNFMSYQRPFHTLSKINLPILRFEEAVCSTLKKMRKTNKKIDWNAVDVVCGGNYGLEHLIGKSMGLERFDILAELFHRDFKHLLTKILRHLSAMDLINVISVSTTWRKLLQKDNWAYNAYKLGCKELCEKRAKVSSHTATRDESLCRVPLASVQKVAASSLCTSKKQSKNKNGGLSCNRLAEFIEVAQTLKNDQSLKVCVDCGSPAKHDPCLHRAICTRESCKLDFCTRCSCKYHFSKSCLMSKPGSYRIPSEPLPGSKKSKQNLRRL
notes: 392 residues; also called xEmi1; Emi1p
For B5, in assay [6], the binding entry is recorded as “binds”.
